Measurements taken from paper PMC6117920, “Chitinase 3-like 1-CD44 interaction promotes metastasis and epithelial-to-mesenchymal transition through β-catenin/Erk/Akt signaling in gastric cancer” (Journal of Experimental & Clinical Cancer Research : CR, 2018).

What was measured:
[1] = biological target: T1, recombinant human IL-13Rα2 ECD (human, UniProt Q14627 27-343); assay: ELISA; direct ELISA; rhCHI3L1 or rhIL-13Rα2 ECD coated at 4 μg/ml in PBS; various concentrations of rhCD44v3 ECD added, 1 h at RT; detected with anti-CD44 antibody, absorbance at 450 nm; both purified
T1 construct: Interleukin-13 receptor alpha 2, human, extracellular domain; also called rhIL-13Rα2 ECD; Interleukin-13 receptor alpha 2; source: bought: Sino Biological (Cat. #10350-H08H-20)
T1 sequence (looked up): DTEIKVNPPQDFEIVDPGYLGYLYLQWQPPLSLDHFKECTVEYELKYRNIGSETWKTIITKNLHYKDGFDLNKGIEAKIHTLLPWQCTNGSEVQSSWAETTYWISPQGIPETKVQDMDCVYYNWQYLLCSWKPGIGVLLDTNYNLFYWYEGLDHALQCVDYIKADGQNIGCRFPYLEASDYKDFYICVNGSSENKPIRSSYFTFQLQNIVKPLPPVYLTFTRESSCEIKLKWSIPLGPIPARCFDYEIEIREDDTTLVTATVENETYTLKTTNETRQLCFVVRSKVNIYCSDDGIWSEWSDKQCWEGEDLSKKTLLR

[2] = biological target: RhCD44s extracellular domain (ECD) (human); assay: BLI; Octet K2; by the legend CD44s ECD was immobilized and CHI3L1 (500 μM) or IL-13Rα2 (500 μM) was in the mobile phase (the methods say rhCD44s ECD in the mobile phase); both purified

With “human CD44v3 ECD (21–310aa) (domain or fragment)” the binding [1] was “binds”.

B1: recombinant human IL-13Rα2 ECD (domain or fragment, UniProt Q14627 27-343)
chain: DTEIKVNPPQDFEIVDPGYLGYLYLQWQPPLSLDHFKECTVEYELKYRNIGSETWKTIITKNLHYKDGFDLNKGIEAKIHTLLPWQCTNGSEVQSSWAETTYWISPQGIPETKVQDMDCVYYNWQYLLCSWKPGIGVLLDTNYNLFYWYEGLDHALQCVDYIKADGQNIGCRFPYLEASDYKDFYICVNGSSENKPIRSSYFTFQLQNIVKPLPPVYLTFTRESSCEIKLKWSIPLGPIPARCFDYEIEIREDDTTLVTATVENETYTLKTTNETRQLCFVVRSKVNIYCSDDGIWSEWSDKQCWEGEDLSKKTLLR
In the case of B1, the binding [2] is reported as “no binding (tested: 500 μM)”.

Results are given in words; binding and its absence hold for the method and conditions named. For some assays here: Binding calls can cover weak binding; strength is not graded here.
